From article PMC7819943, “Rice protein-binding microarrays: a tool to detect cis-acting elements near promoter regions in rice”
Some of the results follow.

biological target: T1, OsSMF1 (Oryza sativa, UniProt Q6ZLB0 1-436); experiment: protein-binding microarray (RPBM); PBS, 2% BSA, 51.3 ng/ul salmon testes DNA, 50 uM zinc acetate, 200 nM TF, 25 C, 1 h; high values mean tight binding; conditions: protein: recombinant; tags: N-terminal polyhistidine and DsRed monomer fusion (pET32a); chain copies: 2; label: CyDye5-dUTP incorporated in the synthesized complementary strand; 3' TTTTT single-stranded linker to array surface; dsDNA, one strand shown
T1 sequence: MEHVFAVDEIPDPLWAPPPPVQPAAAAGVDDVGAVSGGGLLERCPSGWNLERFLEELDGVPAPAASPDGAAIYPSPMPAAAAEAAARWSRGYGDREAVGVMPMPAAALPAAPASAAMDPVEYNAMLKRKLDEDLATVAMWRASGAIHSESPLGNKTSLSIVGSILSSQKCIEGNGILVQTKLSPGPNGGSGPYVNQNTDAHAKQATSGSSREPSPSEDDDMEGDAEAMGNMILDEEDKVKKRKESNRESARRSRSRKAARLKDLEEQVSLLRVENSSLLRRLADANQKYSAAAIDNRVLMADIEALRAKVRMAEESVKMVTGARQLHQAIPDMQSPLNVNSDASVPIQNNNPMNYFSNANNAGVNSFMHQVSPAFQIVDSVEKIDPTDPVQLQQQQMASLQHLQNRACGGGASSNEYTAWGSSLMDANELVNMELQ
How it was run: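 Transcription factors were made in E. coli BL21-CodonPlus as N-terminal fusions to a polyhistidine tag and DsRed, then purified on Ni–NTA. After primer extension with Cy5-dUTP and blocking with 2% BSA, a custom Agilent array was exposed for 1 h at 25 °C to 200 nM protein in PBS, 2% BSA, salmon testes DNA and 50 µM zinc acetate. Washed arrays were scanned on an Axon 4000B, and the binding signal is per-feature fluorescence intensity in arbitrary units.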

| Sequence | binding signal |
| --- | --- |
| CATCGACACCCTACAGCGTACACGTACTTGTGCTGCTCGTCGGAGTCACCTAGTGCAG | 4420 fluorescence intensity (a.u.) |
| GATGATGAACAATTGTCTGAATCCGATGCTCGATTGCCATCGGAGTCACCTAGTGCAG | 3590 fluorescence intensity (a.u.) |
| CTCTTCTTCTTCCTCACCAAAGTTGTTGAGTTGGTGTCCTCGGAGTCACCTAGTGCAG | 3160 fluorescence intensity (a.u.) |
| ATCCGTCTTTTGCATTTGTTGTGTTCGATCTTATAACTGCCGGAGTCACCTAGTGCAG | 3600 fluorescence intensity (a.u.) |
| CATGTTGTACGTACTCGGTTCTCACGTCATCATGATAGGGCGGAGTCACCTAGTGCAG | 11400 fluorescence intensity (a.u.) |
| TGGTCAGTTGAGGGAGTCAAAGTGATCTTCCATTACGGTTCGGAGTCACCTAGTGCAG | 3340 fluorescence intensity (a.u.) |
| TTGTTTCACCGCTTACGCCACGTGCGCCGCTCAGCTGTATCGGAGTCACCTAGTGCAG | 9840 fluorescence intensity (a.u.) |
| TTCACCTACTGCGTGAGAGATGGATGACTAGTCATGTTTGCGGAGTCACCTAGTGCAG | 5610 fluorescence intensity (a.u.) |
| TCCTGGGTCTATGTATTGGAGCTGTCAGTGTGTAGGTGGACGGAGTCACCTAGTGCAG | 3470 fluorescence intensity (a.u.) |
| CCGTACACACACACGACGCAGCCGTAGACATGCAACCGAACGGAGTCACCTAGTGCAG | 3540 fluorescence intensity (a.u.) |
| TTCTTCTTTTCTTCTTGCTCATACAGTTCTTGAAACATAACGGAGTCACCTAGTGCAG | 5190 fluorescence intensity (a.u.) |
| ATAGGTGGTTGATTTATTTTGCGTAGGAGAGAGTACGTTGCGGAGTCACCTAGTGCAG | 3360 fluorescence intensity (a.u.) |
| GATCGACACAGTAGTGGTACAGTGTGCGTGTGCGTGTGTGCGGAGTCACCTAGTGCAG | 3950 fluorescence intensity (a.u.) |
| TATATCTTCATAAAACCAACTCAAACACGGATGACGTACCCGGAGTCACCTAGTGCAG | 4730 fluorescence intensity (a.u.) |
| CAATTCCCAGGGATCTCCCCGGTTGATGTCACTGTCGGTCCGGAGTCACCTAGTGCAG | 4540 fluorescence intensity (a.u.) |
| CCATTGTGGATTTTGTGGCTGGAAAACTATGTGGCTTCTTCGGAGTCACCTAGTGCAG | 3360 fluorescence intensity (a.u.) |
| CCTACAAACATTACTAAGCCGTCACGTGGCGCTCTAATAACGGAGTCACCTAGTGCAG | 4340 fluorescence intensity (a.u.) |
| AGTCAAGCGGTTTGGTTCATTGGGATACCCAGGTTGTACGCGGAGTCACCTAGTGCAG | 14200 fluorescence intensity (a.u.) |
| CTTGAACTGAACAAATCCATGGCGAAGTAGCTAGTGCTGACGGAGTCACCTAGTGCAG | 5210 fluorescence intensity (a.u.) |
| CAAAGCGGCCCAACAATGAACACGTCACTTGTATTCACTACGGAGTCACCTAGTGCAG | 7510 fluorescence intensity (a.u.) |
| TTGGCTGGACACATGACGCATGCGAACCAGGTTATGGACGCGGAGTCACCTAGTGCAG | 3780 fluorescence intensity (a.u.) |

| Sequence | binding signal |
| --- | --- |
| CCATGCCACGCTGTCCGTACCCCTGCCTGCGTGCGCACCGCGGAGTCACCTAGTGCAG | 7880 fluorescence intensity (a.u.) |
| CTATACACAAAAGCTGATGTCATCACGCCTAACTCCTCTCCGGAGTCACCTAGTGCAG | 14800 fluorescence intensity (a.u.) |
| CGTTCGATTCGATTCGATTTCCGCCCAAAATTTCCCAAATCGGAGTCACCTAGTGCAG | 4480 fluorescence intensity (a.u.) |
| CTAGCTGCCAGGCTTTGGATTCTGAGCGCCACGTCAGGAACGGAGTCACCTAGTGCAG | 15100 fluorescence intensity (a.u.) |
| TCTTCGAAGATGCTCATAGGGGTAGGGTTTGCGTGCGTGTCGGAGTCACCTAGTGCAG | 3190 fluorescence intensity (a.u.) |
| CAAGGCCGATGCAACACTGACGTGGCCATCAATTTGATCCCGGAGTCACCTAGTGCAG | 10800 fluorescence intensity (a.u.) |
| GGTATTTGTCTTTCACCTTGAGTCAGCCCCAATTTCCAATCGGAGTCACCTAGTGCAG | 6730 fluorescence intensity (a.u.) |
| CCATCTCAACCCATTTGCACCCACGTCGCCGTGCATCCGCCGGAGTCACCTAGTGCAG | 3700 fluorescence intensity (a.u.) |
| TCTCTCTTCACGGGAGGGCAGTGTGGTTTTGGTCGGATTCCGGAGTCACCTAGTGCAG | 3530 fluorescence intensity (a.u.) |
| GTGCCTGAACTAGCATAATCACTGTGTCACCATCTTTCCTCGGAGTCACCTAGTGCAG | 5850 fluorescence intensity (a.u.) |
| CCTGATGACAATGTAACCACATCACATCTATTTGTAACATCGGAGTCACCTAGTGCAG | 3950 fluorescence intensity (a.u.) |
| TTTGCGGTGAAGGGTGAGTGTAGAAGTAGGGACTGTTGATCGGAGTCACCTAGTGCAG | 5090 fluorescence intensity (a.u.) |
| TACATGTCTTATCCCTCTGACTTGGAAGACCATGAGCACACGGAGTCACCTAGTGCAG | 3380 fluorescence intensity (a.u.) |
| AAAACCGGCAAACTTTTATAGTGTGGCAATGTTTGGCAAGCGGAGTCACCTAGTGCAG | 3180 fluorescence intensity (a.u.) |
| TAGATCAATGATGTTGCATGCAACTCACGCGACACATGGTCGGAGTCACCTAGTGCAG | 40000 fluorescence intensity (a.u.) |
| AGTCGATGACATTTGGGTCGCACCTATAGACACAGCAAGTCGGAGTCACCTAGTGCAG | 3300 fluorescence intensity (a.u.) |
| AAAAGAGCCCACATGTCGGTCCTAATCTGACTCAGCTCACCGGAGTCACCTAGTGCAG | 7920 fluorescence intensity (a.u.) |
| ATTTAATCTTTATCAGGTTCGAACGGATAGGTCCATGAATCGGAGTCACCTAGTGCAG | 32800 fluorescence intensity (a.u.) |
| CGGTTCACCTCACCTCACCACCGAACCCCACTCGATGGCACGGAGTCACCTAGTGCAG | 22600 fluorescence intensity (a.u.) |
| GGCCGGAGGGCGGCCTCGGTGGCGTGGAGTTGGCAGCGGGCGGAGTCACCTAGTGCAG | 3770 fluorescence intensity (a.u.) |
| ATGTAGTTTACCAGTTACATTGACCTGGACAGTACTCTAACGGAGTCACCTAGTGCAG | 4520 fluorescence intensity (a.u.) |

In a second layout: entries from further up.
CGTTCGATTCGATTCGATTTCCGCCCAAAATTTCCCAAATCGGAGTCACCTAGTGCAG
  binding signal = 4480 fluorescence intensity (a.u.)
TACATGTCTTATCCCTCTGACTTGGAAGACCATGAGCACACGGAGTCACCTAGTGCAG
  binding signal = 3380 fluorescence intensity (a.u.)
